# Results are given in words; binding and its absence hold for the method and conditions named. Binding calls can cover weak binding; strength is not graded here.
# Assays:
# [1] = target: Recombinant Msf fragment Msf 1-422 (strain H44/76) (Neisseria meningitidis strain H44/76); assay: ELISA; competition: Msf 1-422 coated at 3 μM, aVn 74 nM overlaid in the presence of VA26 or a control peptide; bound aVn detected with anti-vitronectin; both purified
# [2] = target: Recombinant Msf 1-422 construct lacking amino acids 4-82 (Neisseria meningitidis strain H44/76); assay: ELISA; Msf constructs coated at 3 μM; biotinylated peptides (VA-26 or MV-14/GS-22) 1.5 μM in PBS overlaid 1 h at RT; detected with anti-biotin alkaline phosphatase antibody; both purified
# [3] = target: Recombinant Msf fragment Msf 1-203 (strain H44/76) (Neisseria meningitidis strain H44/76); assay: as above
# [4] = target: Recombinant Msf fragment Msf 1-86 (strain H44/76) (Neisseria meningitidis strain H44/76); assay: as above
# [5] = target: Recombinant Msf fragment Msf 197-422 (strain H44/76) (Neisseria meningitidis strain H44/76); assay: as above
# [6] = target: Recombinant Msf fragment Msf 39-124 (strain H44/76) (Neisseria meningitidis strain H44/76); assay: as above
# [7] = target: Recombinant Msf fragment Msf 81-203 (strain H44/76) (Neisseria meningitidis strain H44/76); assay: as above
binder,measurement,setting,value
VTRGDVFTMPEDEYTVYDDGEEKNNA (biotinylated (position not given)) [Biotinylated synthetic peptide spanning human vitronectin residues 43-68],binding,[1],binds
same,binding,[2],binds weakly
same,binding,[3],binds
same,binding,[4],binds
same,binding,[5],binds weakly
same,binding,[6],binds
same,binding,[7],binds weakly
